PubChem BioAssay AID2685 (National Center for Advancing Translational Sciences (NCATS), 2010)
This is one part of the list. Shown are side measurements of this screen, not its main read-out; they come without a call. Most of these compounds were active or inconclusive in the main read-out, so they are no random draw. Words in brackets tell the shape of the fitted curve; partial curves, single points and poor fits give uncertain potencies.

Test: qHTS Assay for Lipid Storage Modulators in Drosophila S3 Cells;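 on cell number change: cells counted by Cell Tracker Red CMTPX staining in the red channel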
Conditions: BODIPY lipid droplet fluorescence, 18-24 h; for cell number change: measured here: cell count max response, cells fed with added oleic acid
In short: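 Drosophila S3 cells loaded with oleic acid (400 uM, as added) and compounds at several concentrations; lipid droplets imaged by 488-nm laser-scanning cytometry, 500–530 nm intensity and object ratio to cell channel. Percent activity normalized to 20 uM Triacsin C.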

[1] = measured here: cell number channel AC50, cells fed with added oleic acid
[2] = measured here: lipid fluorescence (Fed channel) AC50, cells fed with added oleic acid

SMILES | cell number change [%] | AC50 [1] | AC50 [2]
O=C(NC1CCCCC1)C(c1ccc(F)cc1)N(C(=O)c1csnn1)C1CC1 (centres undefined) | 21 |  | 
O=C(/C=C/c1cn(-c2ccccc2)nc1-c1ccc2c(c1)OCCO2)NCCCN1CCOCC1 | 3.97 | 1.84 µM [rising, partial curve] | 0.82 µM [rising, partial curve, poor fit]
COCCNC(=O)CN(C(=O)CCC(=O)Nc1cc(C)on1)c1ccccc1C | -0.982 |  | 
CCNC(=O)CC1C(=O)N(c2ccccc2)C(=O)N1CCc1ccc(OC)c(OC)c1 (centres undefined) |  |  | 2.91 µM [falling, partial curve]
Cc1ccccc1-n1c(Cn2c(=O)sc3ccccc32)nnc1SCC(=O)Nc1nccs1 | -0.41 |  | 0.058 µM [rising, full curve, poor fit]
CCCc1nc(SCC(=O)N2CCc3ccccc32)c2c(=O)n(C)c(=O)n(C)c2n1 |  | 0.366 µM [rising, full curve] | 0.58 µM [rising, full curve]
CCc1nnc(NC(=O)CCc2ccccc2OC)s1 | 10.8 |  | 
Cc1ccc(S(=O)(=O)N2CCC(C(=O)NCCCN3CCOCC3)CC2)cc1C | -14.9 |  | 
COc1ccccc1C(=O)COC(=O)c1ccc(-n2cnnn2)cc1 | -66 | 14.6 µM [falling, partial curve, poor fit] | 
CCN(CC(=O)NC(=O)NCc1ccccc1)CC(=O)Nc1cc(Cl)ccc1C | 0.337 | 6.51 µM [falling, single point] | 0.103 µM [falling, full curve, poor fit]
CCOC(=O)Cc1csc(SCC(=O)Nc2cc(Cl)ccc2Oc2ccccc2)n1 | 2.61 |  | 6.51 µM [falling, partial curve]
Cc1cc(C)cc(N(C(=O)c2ccccn2)C(C(=O)NC2CCCCC2)c2ccncc2)c1 (centres undefined) | 9.27 |  | 6.51 µM [rising, partial curve, poor fit]
COc1ccc(/C=N/Nc2cc(C)nc3c(C)cccc23)cc1 | -49.1 | 23.1 µM [falling, single point] | 
CC(SC#N)C(=O)C12CC3CC(CC(C3)C1)C2 (centres undefined) | -20.4 |  | 25.9 µM [falling, single point]
Cc1cc(NC(=O)c2ccc(N(C)S(=O)(=O)c3ccccc3)cc2)no1 | -15.2 |  | 0.82 µM [falling, full curve, poor fit]
Cc1cc(C)c(-c2csc(NC(=O)c3n[nH]c(=O)c4ccccc34)n2)c(C)c1 | -7.36 |  | 11.6 µM [falling, single point]
COc1ccc(NC(=O)CCNS(=O)(=O)c2cccc(C(C)=O)c2)cc1S(N)(=O)=O | -13.3 |  | 6.51 µM [falling, partial curve]
CC1CCC(NC(=O)C2c3ccccc3C(=O)N2Cc2cccs2)CC1 (centres undefined) | -11.4 |  | 1.84 µM [falling, full curve, poor fit]
O=C(N/N=C/c1ccoc1)c1cc(Br)ccc1O | -30.7 | 32.6 µM [falling, single point] | 11.6 µM [falling, single point]
COc1ccc(CNC2c3ccccc3-c3ccccc32)cc1OC |  |  | 10.3 µM [falling, partial curve, poor fit]

SMILES | cell number change [%] | AC50 [1] | AC50 [2]
CCOC(=O)c1ccc(NC(=O)COc2cc3oc(=O)c(CC(C)O)c(C)c3cc2Cl)cc1 (centres undefined) | 18 |  | 32.6 µM [rising, single point]
Cc1ccc(CSCC(=O)N(CCC(C)C)c2c(N)n(Cc3ccccc3)c(=O)[nH]c2=O)cc1 | -44 | 23.1 µM [falling, single point] | 13 µM [falling, partial curve]
COCc1c(C(=O)N2CCN(c3ncccn3)CC2)oc2ccccc12 | 32.7 | 9.2 µM [rising, partial curve, poor fit] | 2.06 µM [rising, full curve, poor fit]
C#CCOCCOCCOCCNc1nc(N2CCN(C(=O)CCCCCCCCCCNC(=O)Cn3cc(C[C@@H](C)O)nn3)CC2)nc(N2CCN(C(=O)CCCCCCCCCCNC(=O)[C@H](CCCCN)n3cc(C[C@@H](C)CC)nn3)CC2)n1 | -71.9 | 14.6 µM [falling, partial curve] | 18.4 µM [falling, single point]
Cc1ccccc1N=Cc1c(O)n(-c2nccs2)c(=O)c2ccccc12 | 34.9 | 2.59 µM [rising, full curve, poor fit] | 1.84 µM [rising, full curve]
CCOc1ccc(NC(=O)CSc2nc3ccccc3c(=O)n2CCNC(C)=O)cc1 | 20.6 |  | 0.259 µM [rising, full curve]
CC1(C)CC(=O)C(C(=O)/C=C/NCCc2ccccc2)C(=O)C1 | -2.38 |  | 29.1 µM [falling, partial curve]
Nc1nnc(-c2ccc(Cl)c(Cl)c2)s1 | 98.2 | 1.84 µM [rising, partial curve, poor fit] | 0.00517 µM [rising, full curve, poor fit]
C1CCN=C(Nc2nc3c(s2)CCCC3)CC1 |  |  | 0.731 µM [falling, full curve]
Cc1ccc(C(=O)N2CCN(C)CC2)cc1S(=O)(=O)N1CCCCCC1 | 19.9 |  | 
COc1cc(C(=S)N2CCC(C)CC2)ccc1O | 24.3 |  | 29.1 µM [rising, single point]
O=C(NCc1ccco1)c1cccc(C(F)(F)F)c1 | -18.8 |  | 29.1 µM [falling, single point]
Cc1onc(-c2c(F)cccc2Cl)c1C(=O)N1CCOC12CCCCC2 | 81.5 | 7.31 µM [rising, partial curve] | 9.2 µM [rising, partial curve]
COc1ccccc1-c1nc(-c2ccccn2)no1 | 6.45 |  | 
Cc1cnc(C(=O)OCC(=O)c2ccc(-c3ccccc3)cc2)cn1 | 24.9 |  | 29.1 µM [rising, single point]
CCC(=O)NS(=O)(=O)c1ccc(N=NN2CCCCC2)cc1 | -31.2 |  | 0.58 µM [falling, full curve, poor fit]
O=C(Nc1ccc(N2CCOCC2)c2nonc12)C1CCCC1 | -4.5 |  | 2.06 µM [rising, partial curve]
CC(C)CCn1nnnc1C(c1ccc(N(C)C)cc1)N1CCN(C(=O)c2ccco2)CC1 (centres undefined) | 12.5 |  | 13 µM [rising, partial curve]
O=S(=O)(NCc1cn2ccccc2n1)c1cccs1 | -1.45 | 3.26 µM [rising, single point] | 1.84 µM [rising, partial curve]
O=C1N/C(=C/c2ccco2)C(=O)N1Cc1ccccc1F | -4.49 |  | 1.64 µM [rising, full curve]

One compound at a time, from the list above:
`O=S(=O)(NCc1cn2ccccc2n1)c1cccs1` is listed with cell number change [%]: -1.45; AC50 [1]: 3.26 µM [rising, single point]; AC50 [2]: 1.84 µM [rising, partial curve]
`Cc1onc(-c2c(F)cccc2Cl)c1C(=O)N1CCOC12CCCCC2` is listed with cell number change [%]: 81.5; AC50 [1]: 7.31 µM [rising, partial curve]; AC50 [2]: 9.2 µM [rising, partial curve]

Two of the compounds above, with each value named.
Cc1cc(C)c(-c2csc(NC(=O)c3n[nH]c(=O)c4ccccc34)n2)c(C)c1
  cell number change [%]: -7.36; AC50 [2]: 11.6 µM [falling, single point]
COc1ccc(NC(=O)CCNS(=O)(=O)c2cccc(C(C)=O)c2)cc1S(N)(=O)=O
  cell number change [%]: -13.3; AC50 [2]: 6.51 µM [falling, partial curve]

Remaining list, next part.

SMILES | cell number change [%] | AC50 [1] | AC50 [2]
O=C(c1ccco1)N(Cc1cc2ccccc2[nH]c1=O)CC1CCCO1 (centres undefined) | 11.8 |  | 0.326 µM [rising, partial curve, poor fit]
CCC(C)n1c(SC(C)C#N)nc2ccccc2c1=O (centres undefined) | -3.11 |  | 4.11 µM [rising, full curve, poor fit]
O=C(CN1C2=NCCCN2c2ccccc21)c1ccc([N+](=O)[O-])cc1 | -22.2 |  | 0.411 µM [falling, partial curve, poor fit]
c1ccc(Cn2c[n+](Cc3ccccc3)cn2)cc1 | -19.6 | 4.61 µM [falling, full curve, poor fit] | 29.1 µM [falling, single point]
O=C(NCCc1ccccc1)c1c(F)cccc1F | 4.77 |  | 18.4 µM [rising, single point]
O=[N+]([O-])c1cccc2c(N3CCCC3)ccnc12 | -31.1 | 20.6 µM [falling, single point] | 23.1 µM [falling, single point]
COCc1cc(=O)[nH]c(/N=C(\N)Nc2ccccc2C)n1 |  |  | 2.91 µM [rising, partial curve]
O=C(COc1ccc(F)cc1)NCCN1CCCC1 | -19.1 |  | 32.6 µM [falling, single point]
Cc1ccc(S(=O)(=O)N2CCN(C(=O)CCn3nc(C)c(C)c3C)CC2)cc1C | 5.56 |  | 29.1 µM [rising, partial curve, poor fit]
Cc1ccccc1-n1nc2c(c1NC(=O)c1cc3ccccc3o1)CS(=O)(=O)C2 | -9 |  | 
Cc1ccc(NC(=O)Nc2ccc3c(c2)N(C)C(=O)CS3)cc1C | -35.2 | 32.6 µM [falling, single point] | 20.6 µM [falling, single point]
Cc1ccc(N(Cc2ccccc2)C(=O)c2cccc(S(=O)(=O)N3CC(C)OC(C)C3)c2)cc1 (centres undefined) | 2.18 |  | 6.51 µM [rising, single point]
Cc1ccc2c(c1)CCCN2C(=O)c1cccs1 |  |  | 29.1 µM [rising, single point]
CCOC(=O)CC1C(=O)NCCN1S(=O)(=O)c1ccc(NC(C)=O)cc1 (centres undefined) | -18.4 |  | 
COc1ccc(/C(C)=N/NS(=O)(=O)c2ccccc2)c(OC)c1 | 0.883 |  | 
CC(C)(C)c1ccc(OCC(=O)NNC(=O)Cc2cccs2)cc1 | -22 |  | 
Cc1ccccc1-n1c(SCc2c(C)noc2C)nnc1-c1ccncc1 |  |  | 6.51 µM [falling, single point]
COc1ccc(OC)c(N2Cc3cc(C)c(C)cc3C2)c1 | 102 | 14.6 µM [rising, partial curve] | 6.51 µM [rising, single point]
